Measurements published in US7560227B2, “Biomarkers of vulnerable atherosclerotic plaques and methods of use” (University of Massachusetts, priority 2005, dated 2009).
At least one structure is not confirmed: it was looked up by name or label, or the drawing left a doubt. Where a SMILES comes first, the peptide text is derived from it. Bridges are numbered along the chain shown (N, C = ends).

Sequences of proteins named here, by UniProt entry; tags and fusion partners are left off. Residues count along the entry.
UniProt P05164, 279-745 limits assumed: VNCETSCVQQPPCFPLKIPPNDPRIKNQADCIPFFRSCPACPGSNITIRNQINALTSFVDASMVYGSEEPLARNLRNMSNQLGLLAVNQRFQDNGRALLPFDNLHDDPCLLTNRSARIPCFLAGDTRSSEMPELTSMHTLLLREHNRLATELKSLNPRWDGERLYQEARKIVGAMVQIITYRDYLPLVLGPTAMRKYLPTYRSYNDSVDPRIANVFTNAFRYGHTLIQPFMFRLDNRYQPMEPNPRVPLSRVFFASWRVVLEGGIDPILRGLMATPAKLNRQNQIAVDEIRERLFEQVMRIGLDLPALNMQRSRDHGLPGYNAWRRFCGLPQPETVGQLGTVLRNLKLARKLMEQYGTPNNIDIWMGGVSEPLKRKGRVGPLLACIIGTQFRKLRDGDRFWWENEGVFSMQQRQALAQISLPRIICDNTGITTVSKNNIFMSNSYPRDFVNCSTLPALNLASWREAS
UniProt P05164, 165-273 limits assumed: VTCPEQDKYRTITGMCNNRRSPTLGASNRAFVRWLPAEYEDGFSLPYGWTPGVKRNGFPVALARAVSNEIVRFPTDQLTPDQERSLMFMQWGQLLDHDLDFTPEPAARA

Target: myeloperoxidase (Homo sapiens, UniProt P05164)
Test: Surface plasmon resonance (Biacore 1000) on immobilized myeloperoxidase
Format: binding
Conditions: peptide applied at 1 μM; estimated from fitted sensogram after control cell subtraction; read-out: affinity constant

Question: For `CC(C)C[C@H](NC(=O)[C@@H]1CSSC[C@H](NC(=O)[C@H](CCC(N)=O)NC(=O)CNC(=O)[C@H](CO)NC(=O)[C@@H](N)CCCNC(=N)N)C(=O)N[C@@H](Cc2c[nH]cn2)C(=O)N[C@@H](CC(=O)O)C(=O)N[C@@H](CC(=O)O)C(=O)N[C@@H]([C@@H](C)O)C(=O)N[C@@H](Cc2c[nH]c3ccccc23)C(=O)N[C@@H](CC(N)=O)C(=O)N1)C(=O)N[C@@H](C)C(=O)N[C@@H](CS)C(=O)N[C@H](C(=O)NCC(=O)NCC(=O)N[C@@H](CO)C(=O)NCC(=O)NCC(=O)NCC(=O)N[C@@H](CS)C(=O)O)C(C)C` [MPO-17 twenty-three mer peptide] (H-RSGQCHDDTWNCLACVGGSGGGC-OH; disulfide 5-12 (inferred); N-terminus and C-terminus assumed), which Kd is on record?
Answer: ~0.9 µM
